Where a SMILES comes first, the peptide text is derived from it. [ ]: non-standard residue; d: D form. d(pGlu) = O=C1CC[C@H](C(=O)O)N1; pGlu = O=C1CC[C@@H](C(=O)O)N1
System: B16 cells
Experiment: Peptide bound to the external cell membrane, biotinylated peptides, flow cytometry
Type: cell-based, mouse
Details: biotinylated peptides used, 2 µM, streptavidin-Alexa 488 (FL1), maximum over time course, mean ± SEM, three independent experiments

Compound	Max. External Fluorescence
CC(C)C[C@@H](NC(=O)[C@@H](CCCNC(=N)N)NC(=O)[C@@H](CCCNC(=N)N)NC(=O)[C@H](NC(=O)[C@H]1CCC(=O)N1)[C@H](C)O)C(=O)N[C@@H](C(=O)N[C@H](Cc1ccc(O)cc1)C(=O)N[C@H](CCCCN)C(=O)N1CCC[C@H]1C(=O)N[C@H](CCCNC(=N)N)C(=O)N[C@@H](C(=O)N[C@@H](C(=O)N[C@@H](C(=O)N[C@H](Cc1ccc(O)cc1)C(=O)N[C@@H](C(=O)N[C@H](CCCNC(=N)N)C(=O)NCC(=O)N[C@H](CCCNC(=N)N)C(N)=O)[C@H](C)O)[C@H](C)O)C(C)C)[C@H](C)O)[C@H](C)O [[D-Thr^2,6,11,15, Pro^9]-D-Gm] ([d(pGlu)][dT][dR][dR][dL][dT][dY][dK]P[dR][dT][dV][dT][dY][dT][dR]G[dR]-NH2)	71±4 AU
CC(C)C[C@H](NC(=O)[C@H](CCCNC(=N)N)NC(=O)[C@H](CCCNC(=N)N)NC(=O)[C@@H](NC(=O)[C@@H]1CCC(=O)N1)[C@@H](C)O)C(=O)N[C@H](C(=O)N[C@@H](Cc1ccc(O)cc1)C(=O)N[C@@H](CCCCN)C(=O)N1CCC[C@@H]1C(=O)N[C@@H](CCCNC(=N)N)C(=O)N[C@H](C(=O)N[C@H](C(=O)N[C@H](C(=O)N[C@@H](Cc1ccc(O)cc1)C(=O)N[C@H](C(=O)N[C@@H](CCCNC(=N)N)C(=O)NCC(=O)N[C@@H](CCCNC(=N)N)C(N)=O)[C@@H](C)O)[C@@H](C)O)C(C)C)[C@@H](C)O)[C@@H](C)O [[Thr^2,6,11,15, D-Pro^9]-Gm] ([pGlu]TRRLTYK[dP]RTVTYTRGR-NH2)	38±6 AU
CC(C)C[C@H](NC(=O)[C@H](CCCNC(=N)N)NC(=O)[C@H](CCCNC(=N)N)NC(=O)[C@@H](NC(=O)[C@@H]1CCC(=O)N1)[C@@H](C)O)C(=O)N[C@H](C(=O)N[C@@H](Cc1ccc(O)cc1)C(=O)N[C@@H](CCCCN)C(=O)N[C@@H](CCC(N)=O)C(=O)N[C@@H](CCCNC(=N)N)C(=O)N[C@H](C(=O)N[C@H](C(=O)N[C@H](C(=O)N[C@@H](Cc1ccc(O)cc1)C(=O)N[C@H](C(=O)N[C@@H](CCCNC(=N)N)C(=O)NCC(=O)N[C@@H](CCCNC(=N)N)C(N)=O)[C@@H](C)O)[C@@H](C)O)C(C)C)[C@@H](C)O)[C@@H](C)O [[Thr^2,6,11,15]-Gm] ([pGlu]TRRLTYKQRTVTYTRGR-NH2)	17.5± 7 AU
CC(C)C[C@@H](NC(=O)[C@@H](CCCNC(=N)N)NC(=O)[C@@H](CCCNC(=N)N)NC(=O)[C@H](NC(=O)[C@H]1CCC(=O)N1)[C@H](C)O)C(=O)N[C@@H](C(=O)N[C@H](Cc1ccc(O)cc1)C(=O)N[C@H](CCCCN)C(=O)N[C@H](CCC(N)=O)C(=O)N[C@H](CCCNC(=N)N)C(=O)N[C@@H](C(=O)N[C@@H](C(=O)N[C@@H](C(=O)N[C@H](Cc1ccc(O)cc1)C(=O)N[C@@H](C(=O)N[C@H](CCCNC(=N)N)C(=O)NCC(=O)N[C@H](CCCNC(=N)N)C(N)=O)[C@H](C)O)[C@H](C)O)C(C)C)[C@H](C)O)[C@H](C)O [[D-Thr^2,6,11,15]-D-Gm] ([d(pGlu)][dT][dR][dR][dL][dT][dY][dK][dQ][dR][dT][dV][dT][dY][dT][dR]G[dR]-NH2)	43±6 AU
CC(C)C[C@H](NC(=O)[C@H](CCCNC(=N)N)NC(=O)[C@H](CCCNC(=N)N)NC(=O)[C@H](CO)NC(=O)[C@@H]1CCC(=O)N1)C(=O)N[C@@H](CO)C(=O)N[C@@H](Cc1ccc(O)cc1)C(=O)N[C@@H](CCCCN)C(=O)N[C@@H](CCC(N)=O)C(=O)N[C@@H](CCCNC(=N)N)C(=O)N[C@@H](CO)C(=O)N[C@H](C(=O)N[C@H](C(=O)N[C@@H](Cc1ccc(O)cc1)C(=O)N[C@@H](CO)C(=O)N[C@@H](CCCNC(=N)N)C(=O)NCC(=O)N[C@@H](CCCNC(=N)N)C(N)=O)[C@@H](C)O)C(C)C [[Ser^2,6,11,15]-Gm] ([pGlu]SRRLSYKQRSVTYSRGR-NH2)	37±3 AU

System: not listed separately
Experiment: general procedure: Boc solid-phase peptide synthesis; 4-methylbenzhydrylamine resin (MBHAR) (0.8 mmol/g)
Details: conjugation step, 214 nm

Compound	final HPLC purity
Z-C-R-R-L-C-Y-X-Q-R-C-V-T-Y-C-R-G-R-NH2	99%
Z-C-R-R-L-C-Y-B-Q-R-C-V-T-Y-C-R-G-R-NH2	98%
Z-S-R-R-L-S-Y-X-Q-R-S-V-T-Y-S-R-G-R-NH2	98%
Z-S-R-R-L-S-Y-B-Q-R-S-V-T-Y-S-R-G-R-NH2	97%
Z-T-R-R-L-T-Y-B-p-R-T-V-T-Y-T-R-G-R-NH2	97%
Z-T-R-R-L-T-Y-B-Q-R-T-V-T-Y-T-R-G-R-NH2	98%

Same assay, conditions: whole synthesis, 214 nm

Compound	final HPLC purity
Z-S-R-R-L-S-Y-K-Q-R-S-V-T-Y-S-R-G-R-NH2	98%
Z-T-R-R-L-T-Y-K-Q-R-T-V-T-Y-T-R-G-R-NH2	99%
Z-C-R-R-L-C-Y-K-Q-R-C-V-T-Y-C-R-G-R-NH2	98%
Z-T-R-R-L-T-Y-K-p-R-T-V-T-Y-T-R-G-R-NH2	98%
